The results in this text go back to the supplement of paper PMC6411743.

By UniProt entry, the sequences of proteins in these tests, tags left out. Where a name states a change or a piece, a line headed by the entry shows the natural chain unless it says otherwise.
UniProt Q9H825: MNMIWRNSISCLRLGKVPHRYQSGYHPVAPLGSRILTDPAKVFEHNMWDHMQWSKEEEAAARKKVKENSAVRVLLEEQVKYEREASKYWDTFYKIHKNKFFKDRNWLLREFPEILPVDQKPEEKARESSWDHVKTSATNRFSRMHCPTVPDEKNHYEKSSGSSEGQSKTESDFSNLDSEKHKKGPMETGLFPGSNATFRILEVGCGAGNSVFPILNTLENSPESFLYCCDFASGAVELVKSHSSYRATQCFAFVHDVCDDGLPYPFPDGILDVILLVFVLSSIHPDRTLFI
UniProt A2RU67: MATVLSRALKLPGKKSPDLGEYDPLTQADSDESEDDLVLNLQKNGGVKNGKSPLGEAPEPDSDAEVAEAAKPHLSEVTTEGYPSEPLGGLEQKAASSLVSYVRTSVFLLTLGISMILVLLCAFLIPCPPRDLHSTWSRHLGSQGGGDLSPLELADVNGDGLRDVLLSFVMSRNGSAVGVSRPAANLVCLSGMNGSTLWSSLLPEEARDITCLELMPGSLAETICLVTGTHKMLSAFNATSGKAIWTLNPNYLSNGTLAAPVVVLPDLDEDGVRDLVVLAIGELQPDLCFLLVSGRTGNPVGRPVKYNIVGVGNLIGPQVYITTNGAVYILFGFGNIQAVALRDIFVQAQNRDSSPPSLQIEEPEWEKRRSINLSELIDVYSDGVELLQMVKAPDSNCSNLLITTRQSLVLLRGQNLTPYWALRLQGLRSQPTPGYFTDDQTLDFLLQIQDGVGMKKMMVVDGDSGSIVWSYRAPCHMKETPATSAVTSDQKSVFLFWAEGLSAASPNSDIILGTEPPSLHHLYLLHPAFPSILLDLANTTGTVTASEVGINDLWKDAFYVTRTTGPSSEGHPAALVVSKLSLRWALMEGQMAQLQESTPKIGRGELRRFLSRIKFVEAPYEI
UniProt O15213: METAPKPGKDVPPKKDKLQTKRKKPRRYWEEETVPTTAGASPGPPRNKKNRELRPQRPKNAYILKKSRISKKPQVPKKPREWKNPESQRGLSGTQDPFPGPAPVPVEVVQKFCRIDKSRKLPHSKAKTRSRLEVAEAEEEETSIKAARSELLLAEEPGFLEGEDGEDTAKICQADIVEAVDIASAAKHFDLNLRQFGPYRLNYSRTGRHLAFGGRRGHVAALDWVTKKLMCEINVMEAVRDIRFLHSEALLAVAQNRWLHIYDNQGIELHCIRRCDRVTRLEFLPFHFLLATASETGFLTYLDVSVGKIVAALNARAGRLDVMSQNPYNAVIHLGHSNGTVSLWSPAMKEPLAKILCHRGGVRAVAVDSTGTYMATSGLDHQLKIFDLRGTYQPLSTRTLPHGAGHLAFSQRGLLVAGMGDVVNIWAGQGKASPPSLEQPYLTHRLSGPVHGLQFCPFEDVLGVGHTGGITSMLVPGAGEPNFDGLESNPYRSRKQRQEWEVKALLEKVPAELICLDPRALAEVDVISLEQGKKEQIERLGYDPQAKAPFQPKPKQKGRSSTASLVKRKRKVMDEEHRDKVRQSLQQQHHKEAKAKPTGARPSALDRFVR
UniProt Q9P289: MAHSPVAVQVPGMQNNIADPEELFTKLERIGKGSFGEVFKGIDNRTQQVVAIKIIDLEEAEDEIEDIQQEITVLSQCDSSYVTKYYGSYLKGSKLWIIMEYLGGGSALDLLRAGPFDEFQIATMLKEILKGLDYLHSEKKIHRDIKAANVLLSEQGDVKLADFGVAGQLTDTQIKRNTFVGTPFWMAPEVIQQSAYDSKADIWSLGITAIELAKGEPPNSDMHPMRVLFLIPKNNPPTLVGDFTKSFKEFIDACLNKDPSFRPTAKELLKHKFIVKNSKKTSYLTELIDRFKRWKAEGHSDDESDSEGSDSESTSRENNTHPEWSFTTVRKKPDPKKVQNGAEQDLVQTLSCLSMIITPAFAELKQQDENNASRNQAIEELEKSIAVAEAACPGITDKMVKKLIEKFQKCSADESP
UniProt P11274: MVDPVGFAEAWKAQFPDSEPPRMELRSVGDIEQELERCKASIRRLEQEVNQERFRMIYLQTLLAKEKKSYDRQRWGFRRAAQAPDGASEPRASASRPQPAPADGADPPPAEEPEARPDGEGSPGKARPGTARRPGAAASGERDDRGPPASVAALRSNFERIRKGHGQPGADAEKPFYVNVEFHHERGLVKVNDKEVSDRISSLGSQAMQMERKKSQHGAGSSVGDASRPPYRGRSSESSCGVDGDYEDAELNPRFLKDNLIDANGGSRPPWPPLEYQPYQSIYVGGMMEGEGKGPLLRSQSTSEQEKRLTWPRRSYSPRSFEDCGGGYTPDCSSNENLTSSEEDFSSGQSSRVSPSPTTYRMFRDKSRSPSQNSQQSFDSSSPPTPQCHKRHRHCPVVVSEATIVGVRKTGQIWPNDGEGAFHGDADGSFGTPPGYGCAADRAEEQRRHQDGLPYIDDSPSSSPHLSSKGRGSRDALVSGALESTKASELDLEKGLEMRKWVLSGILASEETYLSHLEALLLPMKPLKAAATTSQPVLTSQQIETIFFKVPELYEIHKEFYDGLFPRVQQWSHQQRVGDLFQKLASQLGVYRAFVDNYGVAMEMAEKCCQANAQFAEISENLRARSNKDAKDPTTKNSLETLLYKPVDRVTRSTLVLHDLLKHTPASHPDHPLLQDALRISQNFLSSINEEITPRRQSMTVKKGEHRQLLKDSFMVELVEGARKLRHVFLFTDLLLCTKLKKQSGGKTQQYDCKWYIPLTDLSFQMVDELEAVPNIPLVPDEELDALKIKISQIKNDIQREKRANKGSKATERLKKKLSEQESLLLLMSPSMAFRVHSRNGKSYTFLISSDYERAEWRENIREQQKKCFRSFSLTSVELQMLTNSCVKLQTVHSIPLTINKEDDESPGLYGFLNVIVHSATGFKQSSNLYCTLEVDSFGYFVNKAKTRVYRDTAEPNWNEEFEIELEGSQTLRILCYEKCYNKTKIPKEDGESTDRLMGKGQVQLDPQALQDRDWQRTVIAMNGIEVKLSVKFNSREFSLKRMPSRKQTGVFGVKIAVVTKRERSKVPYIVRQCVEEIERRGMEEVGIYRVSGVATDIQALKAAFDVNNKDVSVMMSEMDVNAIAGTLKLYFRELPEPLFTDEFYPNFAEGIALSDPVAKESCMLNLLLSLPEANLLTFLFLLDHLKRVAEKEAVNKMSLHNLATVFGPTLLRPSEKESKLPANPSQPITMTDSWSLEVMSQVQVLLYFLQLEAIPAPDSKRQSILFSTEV
UniProt P41732: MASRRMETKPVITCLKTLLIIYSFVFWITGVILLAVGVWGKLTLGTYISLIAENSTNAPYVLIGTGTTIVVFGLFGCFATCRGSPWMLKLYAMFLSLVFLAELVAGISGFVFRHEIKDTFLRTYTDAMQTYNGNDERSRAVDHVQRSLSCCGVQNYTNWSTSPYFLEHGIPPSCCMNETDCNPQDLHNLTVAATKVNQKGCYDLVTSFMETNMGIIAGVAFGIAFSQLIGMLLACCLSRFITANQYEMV
UniProt P51965: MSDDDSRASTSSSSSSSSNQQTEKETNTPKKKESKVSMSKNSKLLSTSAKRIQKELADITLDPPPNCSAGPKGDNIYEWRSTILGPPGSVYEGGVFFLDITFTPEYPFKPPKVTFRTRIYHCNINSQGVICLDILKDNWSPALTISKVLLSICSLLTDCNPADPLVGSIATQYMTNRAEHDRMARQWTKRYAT
UniProt O95168, whole entry: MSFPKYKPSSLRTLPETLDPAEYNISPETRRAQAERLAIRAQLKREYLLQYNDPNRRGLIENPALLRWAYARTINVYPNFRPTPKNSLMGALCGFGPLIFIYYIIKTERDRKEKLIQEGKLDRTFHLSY
UniProt Q9Y666: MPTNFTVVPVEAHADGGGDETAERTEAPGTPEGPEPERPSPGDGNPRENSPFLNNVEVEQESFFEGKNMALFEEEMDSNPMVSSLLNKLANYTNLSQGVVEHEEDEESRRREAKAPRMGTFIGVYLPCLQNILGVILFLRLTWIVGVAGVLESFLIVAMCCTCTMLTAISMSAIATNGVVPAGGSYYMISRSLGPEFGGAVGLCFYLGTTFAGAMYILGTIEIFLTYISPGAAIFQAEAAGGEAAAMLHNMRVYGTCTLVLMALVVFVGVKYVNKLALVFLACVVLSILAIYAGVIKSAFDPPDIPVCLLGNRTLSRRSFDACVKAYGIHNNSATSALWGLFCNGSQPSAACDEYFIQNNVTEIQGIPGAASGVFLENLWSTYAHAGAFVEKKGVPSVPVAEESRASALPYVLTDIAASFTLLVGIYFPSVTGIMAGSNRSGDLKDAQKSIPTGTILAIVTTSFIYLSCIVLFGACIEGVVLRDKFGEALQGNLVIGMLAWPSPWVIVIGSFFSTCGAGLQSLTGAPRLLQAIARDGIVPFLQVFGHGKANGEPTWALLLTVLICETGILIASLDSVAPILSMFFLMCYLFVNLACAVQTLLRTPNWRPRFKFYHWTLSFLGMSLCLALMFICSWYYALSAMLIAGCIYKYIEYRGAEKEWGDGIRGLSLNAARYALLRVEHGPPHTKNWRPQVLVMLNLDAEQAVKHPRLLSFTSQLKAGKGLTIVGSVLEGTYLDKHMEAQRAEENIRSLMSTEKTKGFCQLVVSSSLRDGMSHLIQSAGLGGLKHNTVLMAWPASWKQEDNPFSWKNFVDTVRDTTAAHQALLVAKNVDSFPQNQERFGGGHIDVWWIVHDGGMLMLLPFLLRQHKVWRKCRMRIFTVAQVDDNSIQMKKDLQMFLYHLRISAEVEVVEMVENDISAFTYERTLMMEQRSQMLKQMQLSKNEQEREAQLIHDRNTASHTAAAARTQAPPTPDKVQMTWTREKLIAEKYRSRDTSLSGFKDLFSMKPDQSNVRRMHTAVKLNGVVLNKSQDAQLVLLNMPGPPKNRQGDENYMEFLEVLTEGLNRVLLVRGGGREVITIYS
UniProt Q15329: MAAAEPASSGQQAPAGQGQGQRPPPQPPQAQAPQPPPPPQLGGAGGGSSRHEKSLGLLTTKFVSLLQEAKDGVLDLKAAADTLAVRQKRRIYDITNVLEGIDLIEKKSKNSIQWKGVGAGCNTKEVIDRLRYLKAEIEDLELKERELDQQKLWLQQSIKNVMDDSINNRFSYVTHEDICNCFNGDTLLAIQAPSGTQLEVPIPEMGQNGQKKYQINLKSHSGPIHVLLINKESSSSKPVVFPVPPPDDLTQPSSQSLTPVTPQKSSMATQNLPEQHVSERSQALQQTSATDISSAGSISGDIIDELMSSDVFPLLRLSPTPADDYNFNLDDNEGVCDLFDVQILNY
UniProt A6NHT5: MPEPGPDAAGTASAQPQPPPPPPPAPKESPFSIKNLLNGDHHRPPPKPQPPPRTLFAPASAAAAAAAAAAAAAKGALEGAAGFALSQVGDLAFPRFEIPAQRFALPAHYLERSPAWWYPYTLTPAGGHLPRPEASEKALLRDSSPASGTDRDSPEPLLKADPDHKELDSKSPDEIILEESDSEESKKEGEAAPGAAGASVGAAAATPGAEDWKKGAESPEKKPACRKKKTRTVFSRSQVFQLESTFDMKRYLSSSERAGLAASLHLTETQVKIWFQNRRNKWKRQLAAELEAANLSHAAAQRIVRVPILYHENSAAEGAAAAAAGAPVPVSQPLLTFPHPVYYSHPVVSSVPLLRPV
UniProt Q99439: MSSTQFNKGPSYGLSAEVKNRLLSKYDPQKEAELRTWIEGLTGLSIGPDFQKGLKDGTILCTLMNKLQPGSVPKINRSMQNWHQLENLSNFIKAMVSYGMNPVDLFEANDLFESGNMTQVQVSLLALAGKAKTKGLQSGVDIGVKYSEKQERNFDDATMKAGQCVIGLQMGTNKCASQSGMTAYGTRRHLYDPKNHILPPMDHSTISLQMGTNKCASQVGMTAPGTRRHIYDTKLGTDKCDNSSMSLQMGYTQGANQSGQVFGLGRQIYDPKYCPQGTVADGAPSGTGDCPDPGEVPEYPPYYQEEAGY
UniProt Q9Y6E0: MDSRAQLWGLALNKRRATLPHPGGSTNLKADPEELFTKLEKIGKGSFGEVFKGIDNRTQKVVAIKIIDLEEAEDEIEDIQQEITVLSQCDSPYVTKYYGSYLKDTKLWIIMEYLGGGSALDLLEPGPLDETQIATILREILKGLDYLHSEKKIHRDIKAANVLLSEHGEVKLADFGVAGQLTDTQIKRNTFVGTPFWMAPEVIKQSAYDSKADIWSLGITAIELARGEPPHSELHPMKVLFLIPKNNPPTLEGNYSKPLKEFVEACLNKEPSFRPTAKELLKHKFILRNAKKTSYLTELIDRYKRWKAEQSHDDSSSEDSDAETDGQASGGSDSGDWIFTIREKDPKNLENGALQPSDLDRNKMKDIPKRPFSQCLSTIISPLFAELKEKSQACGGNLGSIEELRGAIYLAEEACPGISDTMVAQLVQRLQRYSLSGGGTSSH

± gives the standard deviation of the averaged measurements. The list shows a part of the results, in another mix than the full data.

Compound in this assay: Nc1ncnc2c1ncn2[C@@H]1O[C@H](COP(=O)(O)OP(=O)(O)OP(=O)(O)O)[C@@H](O)[C@H]1O [adenosine triphosphate]
As to the kind of experiment: NP40-soluble protein abundance relative to vehicle (solubility fold change) (ratio); higher = more soluble protein in presence of ATP. In short, it runs like this: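 Data come from three independent experiments in which Dounce-homogenised Jurkat crude lysate was treated at eight concentrations from 0.1 to 10 mM. Treatment ran 10 min at room temperature and then 3 min at 37 °C, after which 0.8% NP40 and benzonase were added for 60 min at 4 °C before ultracentrifugation. The supernatant underwent TMT labelling and LC-MS/MS, and vsn-normalised intensities were expressed as fold change against the detergent-processed vehicle in each replicate.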

Take “A6NEM2 and related entries (UniProt P51610)”: the NP40-soluble protein abundance is, setting by setting: (concentration: 1mM) 0.989 ± 0.035; (concentration: 2mM) 0.981 ± 0.045; (concentration: 4mM) 0.967 ± 0.045; (concentration: 6mM) 1.02 ± 0.062; (concentration: 8mM) 0.959 ± 0.035; (concentration: 10mM) 0.976 ± 0.029.

In the case of “B3KW44 and related entries (UniProt Q9H825+E7ETE0+B5ME25+B3KW44)”, the NP40-soluble protein abundance worked out at 0.927 ± 0.17 (concentration: 1mM); 0.972 ± 0.041 (concentration: 2mM); 1.02 ± 0.11 (concentration: 4mM); 1.02 ± 0.11 (concentration: 6mM); 0.971 ± 0.089 (concentration: 8mM); 1.06 ± 0.11 (concentration: 10mM).

Consider UniProt A2RU67, for which the NP40-soluble protein abundance came to 1.01 ± 0.088 (concentration: 1mM); 1.01 ± 0.03 (concentration: 2mM); 1.02 ± 0.052 (concentration: 4mM); 1.04 ± 0.038 (concentration: 6mM); 0.9724 ± 0.0062 (concentration: 8mM); 0.938 ± 0.077 (concentration: 10mM).

As for A0A140T9L0|O15213 (UniProt O15213), the NP40-soluble protein abundance reads like this: (concentration: 1mM) 1.04 ± 0.088; (concentration: 2mM) 1.11 ± 0.16; (concentration: 4mM) 1.29 ± 0.17; (concentration: 6mM) 1.25 ± 0.051; (concentration: 8mM) 1.21 ± 0.093; (concentration: 10mM) 1.33 ± 0.31.

On to “B4E0Y9 and related entries (UniProt Q9P289)”, for which the NP40-soluble protein abundance runs as follows: (concentration: 1mM) 0.977 ± 0.024; (concentration: 2mM) 0.9924 ± 0.0082; (concentration: 4mM) 0.963 ± 0.025; (concentration: 6mM) 1.002 ± 0.0083; (concentration: 8mM) 0.956 ± 0.029; (concentration: 10mM) 0.964 ± 0.046.

As to “A9UF01 and related entries (UniProt P11274)”, the NP40-soluble protein abundance worked out at 1.01 ± 0.08 (concentration: 1mM); 1 ± 0.068 (concentration: 2mM); 0.993 ± 0.068 (concentration: 4mM); 0.984 ± 0.086 (concentration: 6mM); 0.983 ± 0.081 (concentration: 8mM); 1 ± 0.093 (concentration: 10mM).

As for “B4DDG0 and related entries (UniProt P41732+B4E171+B4DDG0)”, the NP40-soluble protein abundance was 0.924 ± 0.069 (concentration: 1mM); 0.975 ± 0.046 (concentration: 2mM); 0.944 ± 0.023 (concentration: 4mM); 0.928 ± 0.068 (concentration: 6mM); 0.944 ± 0.072 (concentration: 8mM); 0.876 ± 0.072 (concentration: 10mM).

“C9J2P0 and related entries (UniProt P51965)”: the NP40-soluble protein abundance stood at 0.926 ± 0.054 (concentration: 1mM); 0.962 ± 0.04 (concentration: 2mM); 0.913 ± 0.053 (concentration: 4mM); 0.964 ± 0.046 (concentration: 6mM); 0.938 ± 0.073 (concentration: 8mM); 0.931 ± 0.078 (concentration: 10mM).

As to “B4E0T2 and related entries (UniProt P50542)”, the NP40-soluble protein abundance (concentration: 1mM) is 0.975 ± 0.039; the NP40-soluble protein abundance (concentration: 2mM) turned out to be 0.991 ± 0.063; the NP40-soluble protein abundance (concentration: 4mM) is 0.964 ± 0.043; the NP40-soluble protein abundance (concentration: 6mM) is 0.997 ± 0.025; the NP40-soluble protein abundance (concentration: 8mM) was 0.938 ± 0.036; the NP40-soluble protein abundance (concentration: 10mM) came out at 0.942 ± 0.023.

Take “C9JXQ9 and related entries (UniProt O95168)”: the NP40-soluble protein abundance by setting is: (concentration: 1mM) 0.925 ± 0.061; (concentration: 2mM) 0.859 ± 0.033; (concentration: 4mM) 0.8895 ± 0.0084; (concentration: 6mM) 0.782 ± 0.014; (concentration: 8mM) 0.881 ± 0.043; (concentration: 10mM) 0.856 ± 0.041.

In the case of A0A0G2JNW7|Q9Y666 (UniProt Q9Y666), the NP40-soluble protein abundance runs as follows: (concentration: 1mM) 0.949 ± 0.03; (concentration: 2mM) 0.965 ± 0.031; (concentration: 4mM) 0.972 ± 0.029; (concentration: 6mM) 0.96 ± 0.036; (concentration: 8mM) 0.952 ± 0.026; (concentration: 10mM) 0.981 ± 0.026.

Consider “C9JYE9 and related entries (UniProt Q15329)”, for which the NP40-soluble protein abundance is, setting by setting: (concentration: 1mM) 0.992 ± 0.12; (concentration: 2mM) 0.974 ± 0.054; (concentration: 4mM) 0.96 ± 0.082; (concentration: 6mM) 1.05 ± 0.054; (concentration: 8mM) 0.894 ± 0.018; (concentration: 10mM) 0.902 ± 0.043.

Consider HMX3 (UniProt A6NHT5), for which the NP40-soluble protein abundance (concentration: 1mM) is 0.851 ± 0.026; the NP40-soluble protein abundance (concentration: 2mM) was determined as 0.915 ± 0.11; the NP40-soluble protein abundance (concentration: 4mM) amounted to 0.988 ± 0.032; the NP40-soluble protein abundance (concentration: 6mM) came out at 1.02 ± 0.046; the NP40-soluble protein abundance (concentration: 8mM) was 0.841 ± 0.16; the NP40-soluble protein abundance (concentration: 10mM) turned out to be 0.946 ± 0.17.

For the target “B4DDF4 and related entries (UniProt Q99439)”, the NP40-soluble protein abundance stood at 0.927 ± 0.076 (concentration: 1mM); 0.948 ± 0.048 (concentration: 2mM); 0.902 ± 0.029 (concentration: 4mM); 0.982 ± 0.044 (concentration: 6mM); 0.894 ± 0.011 (concentration: 8mM); 0.884 ± 0.034 (concentration: 10mM).

“B4DR80 and related entries (UniProt Q9Y6E0)”: the NP40-soluble protein abundance (concentration: 1mM) was 0.977 ± 0.081; the NP40-soluble protein abundance (concentration: 2mM) came out at 0.984 ± 0.036; the NP40-soluble protein abundance (concentration: 4mM) was determined as 1.02 ± 0.058; the NP40-soluble protein abundance (concentration: 6mM) was 1.02 ± 0.037; the NP40-soluble protein abundance (concentration: 8mM) worked out at 0.996 ± 0.038; the NP40-soluble protein abundance (concentration: 10mM) amounted to 0.954 ± 0.021.
